Data from article PMC2100146, “The Inhibition of Polo Kinase by Matrimony Maintains G2 Arrest in the Meiotic Cell Cycle” (PLoS Biology, 2007).
Results are given in words; binding and its absence hold for the method and conditions named. In cells and extracts the contact can be indirect. Some entries that bind do so weakly or less than the wild type. For some assays here: Where a sequence is shown, tags or fusion partners need not be part of it.

Assays:
[1] = molecular target: T1, Green Fluorescent Protein (GFP)-Polo (Drosophila melanogaster) (UniProt P52304); assay: co-IP; antibody to GFP (ovary extracts of GFP-polo flies) or monoclonal antibody to Polo (wild-type ovary extracts) on protein A or G agarose beads, 1 h at 4 °C; blot for Mtrm
T1 sequence: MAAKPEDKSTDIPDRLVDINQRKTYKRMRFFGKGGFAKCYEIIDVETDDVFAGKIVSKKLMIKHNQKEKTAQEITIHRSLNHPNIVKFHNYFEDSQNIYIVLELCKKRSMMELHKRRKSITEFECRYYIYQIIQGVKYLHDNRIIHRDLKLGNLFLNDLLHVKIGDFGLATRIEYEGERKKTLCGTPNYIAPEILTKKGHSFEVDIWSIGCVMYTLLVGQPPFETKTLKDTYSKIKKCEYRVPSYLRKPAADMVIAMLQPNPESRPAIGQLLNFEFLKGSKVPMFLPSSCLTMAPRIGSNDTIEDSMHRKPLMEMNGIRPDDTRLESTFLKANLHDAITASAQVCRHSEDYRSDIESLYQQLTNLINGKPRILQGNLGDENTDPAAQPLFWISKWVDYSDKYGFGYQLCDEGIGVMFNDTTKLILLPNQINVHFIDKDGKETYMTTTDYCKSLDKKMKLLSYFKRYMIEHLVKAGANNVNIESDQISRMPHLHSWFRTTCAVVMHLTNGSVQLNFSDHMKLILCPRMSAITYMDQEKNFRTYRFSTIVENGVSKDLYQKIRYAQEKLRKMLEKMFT

[2] = molecular target: T2, Polo kinase (Polo) (Drosophila melanogaster (endogenous in ovaries)) (UniProt P52304); assay: as above
T2 sequence: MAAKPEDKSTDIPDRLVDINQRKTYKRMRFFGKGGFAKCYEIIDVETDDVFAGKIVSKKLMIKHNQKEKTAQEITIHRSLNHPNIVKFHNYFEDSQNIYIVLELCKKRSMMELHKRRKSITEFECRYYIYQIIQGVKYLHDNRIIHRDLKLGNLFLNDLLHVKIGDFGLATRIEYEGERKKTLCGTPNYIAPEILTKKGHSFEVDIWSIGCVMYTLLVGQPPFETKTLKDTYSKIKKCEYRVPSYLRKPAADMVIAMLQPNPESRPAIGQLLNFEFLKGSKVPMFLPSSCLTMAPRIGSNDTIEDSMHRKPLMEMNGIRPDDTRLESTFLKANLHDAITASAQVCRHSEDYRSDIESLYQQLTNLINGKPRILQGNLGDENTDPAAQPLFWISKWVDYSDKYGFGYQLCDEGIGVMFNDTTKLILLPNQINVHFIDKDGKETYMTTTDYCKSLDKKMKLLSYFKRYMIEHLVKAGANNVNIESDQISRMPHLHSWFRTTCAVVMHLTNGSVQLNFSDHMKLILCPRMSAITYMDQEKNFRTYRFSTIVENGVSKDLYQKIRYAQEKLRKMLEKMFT

- binding [1]: binds
- binding [2]: binds
B1: Matrimony (Mtrm) protein (protein, UniProt Q23973 1-217)
chain: MENSRTPTNKTKITLNRTPTLKERRWNTLKVNTSNVRCSTPIFGNFRSPNLSPIENMGTKGKSPVSPMRFATFKKVPTKVHPKQQQQQQHQHCHRTQLKPPPFVLPKPQEEIIEPEREIKSCSSPDTCSDDSNMETSLALESRRRSIKASNHSYVVNHAANVEQILMHMGLENYVTNFEEAHIDLVELASLERADLVKIGLNTDEDCNRIMDVLHTL
